Data: publication doi:10.1101/2022.02.08.479616
These are yes or no findings as the source states them, for the method shown. Binding seen in cells or lysates may run through a third protein. Where a sequence is shown, tags or fusion partners need not be part of it.

T1: ORANGE (OR), split-YFP fusion for BiFC (Arabidopsis thaliana) (UniProt Q9FKF4)
T1 sequence: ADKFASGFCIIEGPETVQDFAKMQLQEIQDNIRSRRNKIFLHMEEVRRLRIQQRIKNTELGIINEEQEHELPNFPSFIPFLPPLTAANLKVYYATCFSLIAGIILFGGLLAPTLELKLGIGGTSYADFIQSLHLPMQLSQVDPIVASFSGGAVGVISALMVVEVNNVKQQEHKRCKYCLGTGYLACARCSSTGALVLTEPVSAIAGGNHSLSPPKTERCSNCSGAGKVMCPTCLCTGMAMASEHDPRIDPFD

T2: OR-Like (ORL), split-YFP fusion for BiFC (Arabidopsis thaliana) (UniProt Q8VYD8)
T2 sequence: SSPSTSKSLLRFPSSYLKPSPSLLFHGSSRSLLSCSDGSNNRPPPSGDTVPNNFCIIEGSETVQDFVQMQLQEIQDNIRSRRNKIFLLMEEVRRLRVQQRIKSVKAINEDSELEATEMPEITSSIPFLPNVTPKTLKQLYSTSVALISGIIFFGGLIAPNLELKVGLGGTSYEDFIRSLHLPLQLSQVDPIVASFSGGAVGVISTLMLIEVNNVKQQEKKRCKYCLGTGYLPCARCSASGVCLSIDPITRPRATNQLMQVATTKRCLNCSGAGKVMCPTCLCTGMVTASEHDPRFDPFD

B1: MgProtoIX methyltransferase (CHLM), split-YFP fusion for BiFC (protein, UniProt Q9SW18 40-312)
chain: AASVTDLAGVDSTTIAVLGGGSVAALAAMVSLTDPERRRKLQAEEVGGGDKEVVREYFNSTGFERWRKIYGETDEVNRVQKDIRLGHAKTVENTMLMLTEDRSLAGVTVCDAGCGTGLLSIPLAKEGAIVSASDISAAMVAEAEMKAKAQLPSENLPKFEVNDLESLTGKYDTVVCLDVLIHYPQNKADGMIAHLASLAEKRVILSFAPKTFYYDILKRIGELFPGPSKATRAYLHSEADVERALGKVGWKISKRGLTTTQFYFSRLIEAVPM
B2: Pchlide oxidoreductase B (PORB), split-YFP fusion for BiFC (protein, UniProt P21218 67-401)
chain: QTAATSSPTVTKSVDGKKTLRKGNVVVTGASSGLGLATAKALAETGKWNVIMACRDFLKAERAAKSVGMPKDSYTVMHLDLASLDSVRQFVDNFRRTETPLDVLVCNAAVYFPTAKEPTYSAEGFELSVATNHLGHFLLARLLLDDLKKSDYPSKRLIIVGSITGNTNTLAGNVPPKANLGDLRGLAGGLNGLNSSAMIDGGDFDGAKAYKDSKVCNMLTMQEFHRRFHEETGVTFASLYPGCIASTGLFREHIPLFRALFPPFQKYITKGYVSETESGKRLAQVVSDPSLTKSGVYWSWNNASASFENQLSEEASDVEKARKVWEISEKLVGLA
B3: GENOMES UNCOUPLED 4 (GUN4), split-YFP fusion for BiFC (protein, UniProt Q9LX31 70-265)
chain: ASATTAETATIFDVLENHLVNQNFRQADEETRRLLIQISGEAAVKRGYVFFSEVKTISPEDLQAIDNLWIKHSDGRFGYSVQRKIWLKVKKDFTRFFVKVEWMKLLDTEVVQYNYRAFPDEFKWELNDETPLGHLPLTNALRGTQLLKCVLSHPAFATADDNSGETEDELNRGVAVAKEQAGVGADKRVFKTNYSF
B4: Mg-chelatase catalytic subunit CHLH (GENOMES UNCOUPLED 5), split-YFP fusion for BiFC (protein, UniProt Q9FNB0 50-1381)
chain: AVSGNGLFTQTNPEVRRIVPIKRDNVPTVKIVYVVLEAQYQSSLSEAVQSLNKTSRFASYEVVGYLVEELRDKNTYNNFCEDLKDANIFIGSLIFVEELAIKVKDAVEKERDRMDAVLVFPSMPEVMRLNKLGSFSMSQLGQSKSPFFQLFKRKKQGSAGFADSMLKLVRTLPKVLKYLPSDKAQDARLYILSLQFWLGGSPDNLQNFVKMISGSYVPALKGVKIEYSDPVLFLDTGIWHPLAPTMYDDVKEYWNWYDTRRDTNDSLKRKDATVVGLVLQRSHIVTGDDSHYVAVIMELEARGAKVVPIFAGGLDFSGPVEKYFVDPVSKQPIVNSAVSLTGFALVGGPARQDHPRAIEALKKLDVPYLVAVPLVFQTTEEWLNSTLGLHPIQVALQVALPELDGAMEPIVFAGRDPRTGKSHALHKRVEQLCIRAIRWGELKRKTKAEKKLAITVFSFPPDKGNVGTAAYLNVFASIFSVLRDLKRDGYNVEGLPENAETLIEEIIHDKEAQFSSPNLNVAYKMGVREYQDLTPYANALEENWGKPPGNLNSDGENLLVYGKAYGNVFIGVQPTFGYEGDPMRLLFSKSASPHHGFAAYYSYVEKIFKADAVLHFGTHGSLEFMPGKQVGMSDACFPDSLIGNIPNVYYYAANNPSEATIAKRRSYANTISYLTPPAENAGLYKGLKQLSELISSYQSLKDTGRGPQIVSSIISTAKQCNLDKDVDLPDEGLELSPKDRDSVVGKVYSKIMEIESRLLPCGLHVIGEPPSAMEAVATLVNIAALDRPEDEISALPSILAECVGREIEDVYRGSDKGILSDVELLKEITDASRGAVSAFVEKTTNSKGQVVDVSDKLTSLLGFGINEPWVEYLSNTKFYRANRDKLRTVFGFLGECLKLVVMDNELGSLMQALEGKYVEPGPGGDPIRNPKVLPTGKNIHALDPQAIPTTAAMASAKIVVERLVERQKLENEGKYPETIALVLWGTDNIKTYGESLGQVLWMIGVRPIADTFGRVNRVEPVSLEELGRPRIDVVVNCSGVFRDLFINQMNLLDRAIKMVAELDEPVEQNFVRKHALEQAEALGIDIREAATRVFSNASGSYSANISLAVENSSWNDEKQLQDMYLSRKSFAFDSDAPGAGMAEKKQVFEMALSTAEVTFQNLDSSEISLTDVSHYFDSDPTNLVQSLRKDKKKPSSYIADTTTANAQVRTLSETVRLDARTKLLNPKWYEGMMSSGYEGVREIEKRLSNTVGWSATSGQVDNWVYEEANSTFIQDEEMLNRLMNTNPNSFRKMLQTFLEANGRGYWDTSAENIEKLKELYSQVEDKIEGIDR
B5: MgPMME cyclase 1 (CRD1), split-YFP fusion for BiFC (protein, UniProt Q9M591 37-409)
chain: MSASSSPPPPTTATSKSKKGTKKEIQESLLTPRFYTTDFEEMEQLFNTEINKNLNEAEFEALLQEFKTDYNQTHFVRNKEFKEAADKLQGPLRQIFVEFLERSCTAEFSGFLLYKELGRRLKKTNPVVAEIFSLMSRDEARHAGFLNKGLSDFNLALDLGFLTKARKYTFFKPKFIFYATYLSEKIGYWRYITIYRHLKENPEFQCYPIFKYFENWCQDENRHGDFFSALMKAQPQFLNDWQAKLWSRFFCLSVYVTMYLNDCQRTNFYEGIGLNTKEFDMHVIIETNRTTARIFPAVLDVENPEFKRKLDRMVVSYEKLLAIGETDDASFIKTLKRIPLVTSLASEILAAYLMPPVESGSVDFAEFEPNLVY

molecular target: T1, ORANGE (OR), split-YFP fusion for BiFC (Arabidopsis thaliana); experiment: split reporter

binding	Binder
no binding	B1
no binding	B2
no binding	B3
no binding	B4
no binding	B5

molecular target: T2, OR-Like (ORL), split-YFP fusion for BiFC (Arabidopsis thaliana); experiment: split reporter

binding	Binder
no binding	B1
no binding	B2
no binding	B3
no binding	B4
no binding	B5
